Results deposited as PubChem BioAssay AID1159596 (NIAID, 2016)
Screen: 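Genes whose silencing alters the TNF reporter response of macrophage-like cells to peptidoglycan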 (primary screen). Cells: human THP1 B5 monocytic reporter cells made macrophage-like with PMA. Reagent: single siRNA against human genes. Timing: assayed 48 to 72 hours after siRNA transfection; peptidoglycan stimulation lasted 4 hours. Conditions: Staphylococcus aureus peptidoglycan for 4 hours; dose not given. Detection: 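Mean over replicate screens of a robust z per siRNA from the dual luciferase TNF promoter reporter after 4 h peptidoglycan, median/MAD normalised, relative to negative controls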. Direction: TNF reporter z-score: higher = stronger TNF promoter reporter response to peptidoglycan. Rule for the call: In these data the active calls have TNF reporter z-score, replicate mean at about -1.5 or lower, or at about 1.5 or higher. Meaning of the calls: active = reporter shifted beyond cut (either direction); inactive = reporter near control level.
The deposit covers 756 reagents; below is a part drawn at random. Of all reagents, 143 (19%) are marked active. 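Active means the reporter moved past about ±1.5 in either direction; scores are per single siRNA, not per gene; peptidoglycan dose not given.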 Unmarked entries are inactive. The numbers tell different reagents against one gene apart. Not stated in the record: the amount of reagent.

| gene symbol | siRNA no. | TNF reporter z-score, replicate mean |
| --- | --- | --- |
| TLR6 (GeneID 10333) | 1 | -1.53 (active) |
| TLR6 (GeneID 10333) | 2 | 0.0592 |
| TLR6 (GeneID 10333) | 3 | -1.75 (active) |
| TLR6 (GeneID 10333) | 4 | -1.56 (active) |
| TLR6 (GeneID 10333) | 5 | -1.83 (active) |
| TLR6 (GeneID 10333) | 6 | -1.39 |
| CXCL9 (GeneID 4283) | 1 | -1.06 |
| CXCL9 (GeneID 4283) | 2 | -0.212 |
| CXCL9 (GeneID 4283) | 3 | -0.942 |
| CXCL9 (GeneID 4283) | 4 | -2.11 (active) |
| CXCL9 (GeneID 4283) | 5 | -0.348 |
| CXCL9 (GeneID 4283) | 6 | 0.437 |
| UBE2N (GeneID 7334) | 1 | 0.267 |
| UBE2N (GeneID 7334) | 2 | -0.599 |
| UBE2N (GeneID 7334) | 3 | 0.677 |
| UBE2N (GeneID 7334) | 4 | -1.21 |
| UBE2N (GeneID 7334) | 5 | -0.0783 |
| UBE2N (GeneID 7334) | 6 | 0.789 |
| AKT3 (GeneID 10000) | 1 | -0.259 |
| AKT3 (GeneID 10000) | 2 | 0.117 |
| AKT3 (GeneID 10000) | 3 | 0.576 |
| AKT3 (GeneID 10000) | 4 | -0.0889 |
| AKT3 (GeneID 10000) | 5 | -0.328 |
| AKT3 (GeneID 10000) | 6 | 0.698 |
| TLR9 (GeneID 54106) | 1 | -1.27 |
| TLR9 (GeneID 54106) | 2 | 0.517 |
| TLR9 (GeneID 54106) | 3 | -0.688 |
| TLR9 (GeneID 54106) | 4 | 0.202 |
| TLR9 (GeneID 54106) | 5 | 0.0654 |
| TLR9 (GeneID 54106) | 6 | 0.968 |

Looked up above.
Entry of TLR6 (GeneID 10333) #4 under “TNF reporter z-score, replicate mean”: -1.56 (active)
TLR9 (GeneID 54106) #4, TNF reporter z-score, replicate mean: 0.202
For “TNF reporter z-score, replicate mean”, AKT3 (GeneID 10000) #5 has -0.328
For “TNF reporter z-score, replicate mean”, AKT3 (GeneID 10000) #3 reads 0.576
Under “TNF reporter z-score, replicate mean”, AKT3 (GeneID 10000) #2 has 0.117
Result of TLR9 (GeneID 54106) #2 in “TNF reporter z-score, replicate mean”: 0.517

The listing continues.
| gene symbol | siRNA no. | TNF reporter z-score, replicate mean |
| --- | --- | --- |
| TRAF6 (GeneID 7189) | 1 | -3.81 (active) |
| TRAF6 (GeneID 7189) | 2 | -3.55 (active) |
| TRAF6 (GeneID 7189) | 3 | -4.74 (active) |
| TRAF6 (GeneID 7189) | 4 | -2.15 (active) |
| TRAF6 (GeneID 7189) | 5 | -3.04 (active) |
| TRAF6 (GeneID 7189) | 6 | -2.28 (active) |
| ELK1 (GeneID 2002) | 1 | -2.4 (active) |
| ELK1 (GeneID 2002) | 2 | -2.18 (active) |
| ELK1 (GeneID 2002) | 3 | -1.71 (active) |
| ELK1 (GeneID 2002) | 4 | -0.531 |
| ELK1 (GeneID 2002) | 5 | -0.555 |
| ELK1 (GeneID 2002) | 6 | 0.441 |
| IL33R (GeneID 9173) | 1 | -0.398 |
| IL33R (GeneID 9173) | 2 | -1.73 (active) |
| IL33R (GeneID 9173) | 3 | -0.643 |
| IL33R (GeneID 9173) | 4 | 0.763 |
| IL33R (GeneID 9173) | 5 | -1.59 (active) |
| IL33R (GeneID 9173) | 6 | -0.163 |
